This is one part of the list.

By UniProt entry, the sequences of proteins in these tests, tags left out. Where a name states a change or a piece, a line headed by the entry shows the natural chain unless it says otherwise.
UniProt Q6ZNA4: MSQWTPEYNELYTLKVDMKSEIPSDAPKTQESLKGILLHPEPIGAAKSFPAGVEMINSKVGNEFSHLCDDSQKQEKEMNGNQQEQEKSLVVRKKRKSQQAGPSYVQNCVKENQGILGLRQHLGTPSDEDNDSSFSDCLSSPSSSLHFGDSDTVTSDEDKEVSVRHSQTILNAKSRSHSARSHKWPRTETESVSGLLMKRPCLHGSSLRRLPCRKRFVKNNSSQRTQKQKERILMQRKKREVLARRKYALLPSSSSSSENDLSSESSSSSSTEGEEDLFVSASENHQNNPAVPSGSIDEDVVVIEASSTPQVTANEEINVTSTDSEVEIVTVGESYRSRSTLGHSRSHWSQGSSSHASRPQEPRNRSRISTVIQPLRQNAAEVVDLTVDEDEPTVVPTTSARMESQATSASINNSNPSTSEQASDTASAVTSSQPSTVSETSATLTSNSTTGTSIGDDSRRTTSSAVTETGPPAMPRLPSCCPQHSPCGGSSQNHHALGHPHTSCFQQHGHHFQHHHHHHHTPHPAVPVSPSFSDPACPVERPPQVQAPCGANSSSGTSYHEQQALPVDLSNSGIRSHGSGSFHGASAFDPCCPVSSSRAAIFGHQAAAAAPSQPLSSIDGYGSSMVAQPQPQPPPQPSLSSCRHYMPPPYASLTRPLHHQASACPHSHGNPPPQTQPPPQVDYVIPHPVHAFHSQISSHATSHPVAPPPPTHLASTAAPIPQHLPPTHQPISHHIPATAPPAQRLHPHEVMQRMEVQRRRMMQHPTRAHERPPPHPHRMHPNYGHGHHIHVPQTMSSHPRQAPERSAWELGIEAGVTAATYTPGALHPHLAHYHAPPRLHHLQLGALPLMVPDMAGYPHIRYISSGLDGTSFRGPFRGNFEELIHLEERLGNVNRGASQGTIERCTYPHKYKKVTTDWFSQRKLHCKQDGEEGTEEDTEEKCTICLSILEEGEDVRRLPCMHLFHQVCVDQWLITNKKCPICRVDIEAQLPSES
UniProt O43566: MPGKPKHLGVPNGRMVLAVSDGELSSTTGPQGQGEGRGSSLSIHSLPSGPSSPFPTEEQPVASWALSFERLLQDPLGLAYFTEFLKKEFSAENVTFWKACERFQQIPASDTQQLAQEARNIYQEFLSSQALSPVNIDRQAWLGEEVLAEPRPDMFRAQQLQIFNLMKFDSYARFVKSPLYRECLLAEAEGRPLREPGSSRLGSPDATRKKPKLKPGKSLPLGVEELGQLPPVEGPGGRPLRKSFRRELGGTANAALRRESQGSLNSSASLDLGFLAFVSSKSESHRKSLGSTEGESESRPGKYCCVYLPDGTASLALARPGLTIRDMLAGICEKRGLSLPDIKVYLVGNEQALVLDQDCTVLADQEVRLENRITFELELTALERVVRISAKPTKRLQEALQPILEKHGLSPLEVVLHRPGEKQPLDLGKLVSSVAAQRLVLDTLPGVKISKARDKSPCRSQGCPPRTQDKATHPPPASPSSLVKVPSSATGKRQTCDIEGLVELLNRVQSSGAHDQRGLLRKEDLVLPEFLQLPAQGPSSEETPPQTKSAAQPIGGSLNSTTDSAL
UniProt P78332: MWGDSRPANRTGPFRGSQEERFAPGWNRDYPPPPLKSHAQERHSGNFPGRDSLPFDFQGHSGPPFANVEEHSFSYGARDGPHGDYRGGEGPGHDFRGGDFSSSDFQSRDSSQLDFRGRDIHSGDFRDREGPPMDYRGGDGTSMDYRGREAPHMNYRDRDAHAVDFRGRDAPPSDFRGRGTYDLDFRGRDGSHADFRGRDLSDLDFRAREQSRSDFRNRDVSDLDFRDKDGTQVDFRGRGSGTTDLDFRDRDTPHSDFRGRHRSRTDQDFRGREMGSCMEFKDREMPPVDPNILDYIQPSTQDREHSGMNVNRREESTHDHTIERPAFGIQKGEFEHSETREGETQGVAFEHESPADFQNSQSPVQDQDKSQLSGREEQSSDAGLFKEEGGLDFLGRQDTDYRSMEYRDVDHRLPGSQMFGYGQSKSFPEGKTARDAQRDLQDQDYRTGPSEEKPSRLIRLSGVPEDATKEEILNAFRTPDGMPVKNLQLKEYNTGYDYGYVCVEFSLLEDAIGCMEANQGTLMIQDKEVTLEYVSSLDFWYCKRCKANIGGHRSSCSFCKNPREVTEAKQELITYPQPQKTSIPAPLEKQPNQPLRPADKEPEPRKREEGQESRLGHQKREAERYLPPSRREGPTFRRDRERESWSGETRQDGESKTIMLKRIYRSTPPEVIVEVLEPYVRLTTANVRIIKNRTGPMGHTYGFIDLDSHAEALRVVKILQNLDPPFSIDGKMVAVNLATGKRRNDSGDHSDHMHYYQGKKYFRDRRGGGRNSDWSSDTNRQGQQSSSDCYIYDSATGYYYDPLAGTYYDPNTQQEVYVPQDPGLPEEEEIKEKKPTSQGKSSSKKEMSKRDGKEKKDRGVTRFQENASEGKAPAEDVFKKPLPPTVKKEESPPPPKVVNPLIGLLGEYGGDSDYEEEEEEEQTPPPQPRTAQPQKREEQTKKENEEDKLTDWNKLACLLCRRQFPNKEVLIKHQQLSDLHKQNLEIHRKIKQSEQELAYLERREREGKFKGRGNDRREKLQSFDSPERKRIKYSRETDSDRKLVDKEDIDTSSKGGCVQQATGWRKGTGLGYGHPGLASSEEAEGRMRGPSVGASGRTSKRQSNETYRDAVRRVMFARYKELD
UniProt P35251: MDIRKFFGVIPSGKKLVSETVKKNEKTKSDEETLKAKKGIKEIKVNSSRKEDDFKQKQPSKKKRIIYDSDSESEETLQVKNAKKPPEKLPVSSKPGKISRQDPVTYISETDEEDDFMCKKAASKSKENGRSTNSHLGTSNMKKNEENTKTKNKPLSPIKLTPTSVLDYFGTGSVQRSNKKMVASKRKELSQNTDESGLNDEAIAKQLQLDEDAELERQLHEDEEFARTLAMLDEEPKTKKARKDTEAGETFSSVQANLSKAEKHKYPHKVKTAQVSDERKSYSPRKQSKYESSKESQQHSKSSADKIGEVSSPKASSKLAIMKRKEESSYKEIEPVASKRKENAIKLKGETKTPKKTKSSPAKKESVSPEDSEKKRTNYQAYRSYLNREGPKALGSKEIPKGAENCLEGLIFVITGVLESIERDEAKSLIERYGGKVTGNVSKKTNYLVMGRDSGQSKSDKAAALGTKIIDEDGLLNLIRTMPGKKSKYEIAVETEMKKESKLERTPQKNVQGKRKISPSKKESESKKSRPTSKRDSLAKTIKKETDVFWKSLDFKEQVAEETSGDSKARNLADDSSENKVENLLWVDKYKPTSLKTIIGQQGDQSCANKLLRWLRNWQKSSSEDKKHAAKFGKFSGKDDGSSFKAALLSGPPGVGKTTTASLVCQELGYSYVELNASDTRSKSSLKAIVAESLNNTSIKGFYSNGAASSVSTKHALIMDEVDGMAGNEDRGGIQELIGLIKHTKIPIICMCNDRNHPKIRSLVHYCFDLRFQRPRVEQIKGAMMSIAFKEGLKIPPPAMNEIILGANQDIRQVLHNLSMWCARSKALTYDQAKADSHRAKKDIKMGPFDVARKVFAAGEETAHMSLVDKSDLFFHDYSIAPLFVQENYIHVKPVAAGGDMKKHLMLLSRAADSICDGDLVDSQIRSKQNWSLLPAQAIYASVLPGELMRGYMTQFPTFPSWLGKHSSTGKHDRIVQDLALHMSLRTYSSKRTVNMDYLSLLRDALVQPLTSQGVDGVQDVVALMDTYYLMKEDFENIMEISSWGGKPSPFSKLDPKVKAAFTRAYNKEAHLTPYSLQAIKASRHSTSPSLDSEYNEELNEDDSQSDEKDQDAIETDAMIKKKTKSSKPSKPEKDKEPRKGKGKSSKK
UniProt Q6NTF9: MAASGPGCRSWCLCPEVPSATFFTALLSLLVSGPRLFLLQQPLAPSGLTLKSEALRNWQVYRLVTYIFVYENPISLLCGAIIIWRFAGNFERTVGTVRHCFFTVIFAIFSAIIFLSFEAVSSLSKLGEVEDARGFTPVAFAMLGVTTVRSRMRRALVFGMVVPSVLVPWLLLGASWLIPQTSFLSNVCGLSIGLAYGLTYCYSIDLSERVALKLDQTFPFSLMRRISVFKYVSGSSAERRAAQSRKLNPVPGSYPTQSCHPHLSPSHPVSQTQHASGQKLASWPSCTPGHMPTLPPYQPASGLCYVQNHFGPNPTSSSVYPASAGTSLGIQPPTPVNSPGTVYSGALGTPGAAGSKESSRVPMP
UniProt Q05823: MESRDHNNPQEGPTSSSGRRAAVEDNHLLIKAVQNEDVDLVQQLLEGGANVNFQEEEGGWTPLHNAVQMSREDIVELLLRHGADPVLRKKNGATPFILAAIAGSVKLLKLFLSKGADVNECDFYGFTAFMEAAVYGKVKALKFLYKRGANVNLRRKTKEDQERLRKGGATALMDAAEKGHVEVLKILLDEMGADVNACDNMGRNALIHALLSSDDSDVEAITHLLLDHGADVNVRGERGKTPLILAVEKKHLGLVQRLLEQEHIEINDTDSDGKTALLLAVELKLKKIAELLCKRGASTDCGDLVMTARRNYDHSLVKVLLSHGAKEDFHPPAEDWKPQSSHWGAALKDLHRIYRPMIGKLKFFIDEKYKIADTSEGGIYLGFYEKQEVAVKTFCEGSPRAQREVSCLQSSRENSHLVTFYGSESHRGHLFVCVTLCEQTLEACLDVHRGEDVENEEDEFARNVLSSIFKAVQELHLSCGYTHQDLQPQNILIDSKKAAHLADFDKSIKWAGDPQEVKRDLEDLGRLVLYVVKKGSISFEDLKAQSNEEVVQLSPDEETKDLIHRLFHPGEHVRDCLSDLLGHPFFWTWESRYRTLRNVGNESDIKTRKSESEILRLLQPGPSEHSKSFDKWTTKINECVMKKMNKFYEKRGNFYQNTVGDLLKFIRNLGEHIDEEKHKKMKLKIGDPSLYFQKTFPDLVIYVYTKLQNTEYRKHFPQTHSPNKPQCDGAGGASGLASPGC
UniProt Q9H4X1: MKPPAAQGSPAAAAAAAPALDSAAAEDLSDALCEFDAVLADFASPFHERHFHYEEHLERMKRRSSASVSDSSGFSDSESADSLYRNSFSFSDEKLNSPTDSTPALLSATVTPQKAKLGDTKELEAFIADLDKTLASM
UniProt Q8IUF8: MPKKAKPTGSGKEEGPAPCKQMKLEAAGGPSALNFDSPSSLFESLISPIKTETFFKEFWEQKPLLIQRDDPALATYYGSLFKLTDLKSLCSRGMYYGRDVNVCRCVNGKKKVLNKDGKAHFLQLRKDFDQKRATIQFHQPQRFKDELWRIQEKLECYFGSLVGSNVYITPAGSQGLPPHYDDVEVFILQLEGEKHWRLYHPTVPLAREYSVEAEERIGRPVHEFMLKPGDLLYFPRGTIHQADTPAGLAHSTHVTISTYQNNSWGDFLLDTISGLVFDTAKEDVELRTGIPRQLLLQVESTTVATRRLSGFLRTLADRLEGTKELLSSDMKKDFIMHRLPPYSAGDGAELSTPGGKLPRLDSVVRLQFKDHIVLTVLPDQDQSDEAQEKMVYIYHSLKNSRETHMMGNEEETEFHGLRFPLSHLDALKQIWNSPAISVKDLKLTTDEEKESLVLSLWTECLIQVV
UniProt P48382: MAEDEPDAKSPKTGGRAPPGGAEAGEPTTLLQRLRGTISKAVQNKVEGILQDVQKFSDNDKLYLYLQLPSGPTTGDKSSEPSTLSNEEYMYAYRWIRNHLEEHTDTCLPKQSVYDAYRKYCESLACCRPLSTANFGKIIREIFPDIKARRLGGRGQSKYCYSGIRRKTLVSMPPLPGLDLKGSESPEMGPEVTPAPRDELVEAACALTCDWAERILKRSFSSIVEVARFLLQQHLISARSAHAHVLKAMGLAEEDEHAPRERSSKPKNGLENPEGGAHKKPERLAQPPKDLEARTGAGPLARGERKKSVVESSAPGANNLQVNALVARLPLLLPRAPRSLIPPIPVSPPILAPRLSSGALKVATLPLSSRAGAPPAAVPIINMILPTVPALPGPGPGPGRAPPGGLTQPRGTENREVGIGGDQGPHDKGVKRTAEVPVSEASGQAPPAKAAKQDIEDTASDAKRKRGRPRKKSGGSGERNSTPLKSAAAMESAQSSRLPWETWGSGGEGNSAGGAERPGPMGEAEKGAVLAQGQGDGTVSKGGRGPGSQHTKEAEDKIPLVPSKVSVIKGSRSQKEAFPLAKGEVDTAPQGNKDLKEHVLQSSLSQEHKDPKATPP
UniProt Q92963, whole entry, looked up: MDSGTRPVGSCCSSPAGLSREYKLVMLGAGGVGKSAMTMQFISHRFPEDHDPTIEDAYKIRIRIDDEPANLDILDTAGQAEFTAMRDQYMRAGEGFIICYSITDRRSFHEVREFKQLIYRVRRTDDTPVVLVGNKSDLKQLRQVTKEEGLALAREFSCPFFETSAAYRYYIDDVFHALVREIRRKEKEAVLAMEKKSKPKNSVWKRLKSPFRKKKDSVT
UniProt P09455: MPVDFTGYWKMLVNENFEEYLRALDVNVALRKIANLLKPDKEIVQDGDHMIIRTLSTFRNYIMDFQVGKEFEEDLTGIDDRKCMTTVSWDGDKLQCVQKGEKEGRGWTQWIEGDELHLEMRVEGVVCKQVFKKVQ

Compound in this experiment: CCn1cc(-c2ccnc3[nH]c(-c4cccc(CN(C)C)c4)cc23)c(-c2ccc(NC(=O)N(C)C)cc2)n1
As to the kind of experiment: log2 fold change, soluble protein after heating vs DMSO (PISA); higher = thermal stabilisation; K562 cells, 10 uM, 30 min; active = over 0.2 and 3.5 SD of the protein, either way, in both replicates (recomputed). The gist of the method: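 K562 cells at 2×10^6 cells/mL were exposed to 10 μM compound for 30 min, then aliquots were heated for 3 min across 48°C-58°C, pooled, and extracted in PBS containing 0.5% NP-40 at 4°C. The supernatant after 21,000xg for 90 min was taken as soluble protein and measured by TMTpro 16plex LC-MS/MS with channel sums equalised. Thermal stability is reported relative to control samples, with values from duplicates. Fold changes are given on a log2 scale.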
For RNF139 (UniProt Q8WU17), the log2 fold change is inactive: -0.2.

RNF111 isoform 3 (UniProt Q6ZNA4): the log2 fold change was inactive: -0.025.

RGS14 (UniProt O43566): the log2 fold change is inactive: 0.147.

With RBM6 (UniProt P78332), the log2 fold change is inactive: 0.148.

For the target RIOX1 (UniProt Q9H6W3), the log2 fold change was inactive: 0.294.

RFC1 (UniProt P35251): the log2 fold change is inactive: 0.127.

On to RFXANK (UniProt O14593), for which the log2 fold change is inactive: -0.038.

Turning to RHBDD2 isoform 2 (UniProt Q6NTF9), the log2 fold change is inactive: -0.097.

In the case of RNASEL (UniProt Q05823), the log2 fold change is inactive: 0.051.

In the case of RECQL5 (UniProt O94762), the log2 fold change is inactive: 0.022.

With RGCC (UniProt Q9H4X1), the log2 fold change was inactive: -0.034.

With RIOX2 (UniProt Q8IUF8), the log2 fold change is inactive: -0.05.

With RBP4 (UniProt P02753), the log2 fold change was inactive: 0.292.

For RFX5 (UniProt P48382), the log2 fold change was inactive: 0.001.

For the target RNF166 (UniProt Q96A37), the log2 fold change was inactive: 0.07.

Turning to RC3H2 (UniProt Q9HBD1), the log2 fold change was inactive: 0.004.

As for RNF169 (UniProt Q8NCN4), the log2 fold change is inactive: 0.17.

On to RNF167 (UniProt Q9H6Y7), for which the log2 fold change is inactive: 0.057.

RBM48 isoform 2 (UniProt Q5RL73): the log2 fold change was inactive: 0.078.

As to RIT1 isoform 3 (UniProt Q92963), the log2 fold change is inactive: -0.089.

With RNF141 (UniProt Q8WVD5), the log2 fold change was inactive: -0.023.

In the case of RBP1 isoform 3 (UniProt P09455), the log2 fold change is inactive: 0.431.

The record behind these values is the supplement of paper PMC10849652.
